Test results taken from patent US9802997B2, “Peptides and combination of peptides for use in immunotherapy against various tumors” (immatics biotechnologies GmbH, priority 2015, dated 2017).

Test system: HLA-A*02 molecules of primary tumor and normal tissue samples
Experiment: Identification and relative quantitation of tumor associated peptides presented on the cell surface (label-free LC-MS presentation profiles, tumor vs normal tissues)
Set-up: species or system human
Details: FIG. 1; more than 170 normal tissue samples and 376 cancer samples analysed; 8 kidney cancers, 1 liver cancer, 2 lung cancers, 2 rectal cancers; also 1 kidney cancer cell line

11 (LLDPKTIFL; listed as Homo sapiens) [compound 11]
samples where the peptide was found to be presented: 13 cancer tissue samples
